PubChem BioAssay AID1224828, NIAID – 2016

Screen: 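Find genes required for NF-kappaB p65 moving into the nucleus after LPS in mouse macrophages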 (primary screen)
Cell system: mouse RAW264.7 G9 macrophage reporter cells (GFP-p65, Tnf promoter-mCherry)
Reagent: siRNA pool against mouse genes, 100 nM
Time to read-out: 2 days siRNA transfection, then 40 min LPS before fixation
Challenge: LPS (Salmonella minnesota R595) at 10 ng/ml
Measured: 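Microscopy ratio of nuclear to perinuclear-ring GFP-p65 signal, scaled to the plate median; gene score is the average of two replicate robust z-scores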
Scale: p65 translocation robust z-score: higher = more nuclear NF-kappaB p65 after LPS than the plate median; nuclear/cytoplasmic p65 ratio: higher = more nuclear NF-kappaB p65
Call rule: 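Called active when z exceeds 3.3 or falls under -1.56 (median of Tlr4 controls), giving activity score of at least 50; no calls for control wells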
Calls: active = hit (p65 shift raised or lowered); inactive = no clear change
The deposit covers about 17,000 reagents; below is a part drawn at random. 762 of them (4.5%) count as active. 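Active calls include both raised and lowered p65 entry, mostly lowered; wells with fewer than 50 cells lack a z-score.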 Raw values are not corrected between plates. Entries without a mark were called inactive. The numbers tell different reagents against one gene apart.

The first 3 entries, ahead of the listing:
no.	gene knocked down	reagent no.	p65 translocation robust z-score	nuclear/cytoplasmic p65 ratio, rep 1	nuclear/cytoplasmic p65 ratio, rep 2	low cell count flag
1	Tmem115 (transmembrane protein 115)	1	-1.04	1.46	1.46	enough cells to score
2	Clcn7 (chloride channel, voltage-sensitive 7)	1	0.5	1.4	1.44	enough cells to score
3	Prune2 (prune homolog 2)	1	0	1.37	1.54	enough cells to score

Main list, from the start:
no.	gene knocked down	reagent no.	p65 translocation robust z-score	nuclear/cytoplasmic p65 ratio, rep 1	nuclear/cytoplasmic p65 ratio, rep 2	low cell count flag
1	Tmem115 (transmembrane protein 115)	1	-1.04	1.46	1.46	enough cells to score
2	Clcn7 (chloride channel, voltage-sensitive 7)	1	0.5	1.4	1.44	enough cells to score
3	Prune2 (prune homolog 2)	1	0	1.37	1.54	enough cells to score
4	Adamtsl5 (ADAMTS-like 5)	1	-0.83	1.3	1.06	enough cells to score
5	Atp6v1g2 (ATPase, H+ transporting, lysosomal V1 subunit G2)	1	0.53	1.63	1.64	enough cells to score
6	Jrk (JRK helix-turn-helix protein)	1		1.67	1.51	fewer than 50 cells per well; well left out of scoring
7	Pcsk1 (proprotein convertase subtilisin/kexin type 1)	1	1.27	1.65	1.55	enough cells to score
8	Kdelr1	1	-0.62	1.44	1.37	enough cells to score
9	Kat6b (K(lysine) acetyltransferase 6B)	1	-0.3	1.71	1.57	enough cells to score
10	Cd244a (CD244 molecule A)	1	-1.75 (active)	1.13	1.24	enough cells to score
11	Krt8 (keratin 8)	1	0.73	1.61	1.45	enough cells to score
12	Ncstn (nicastrin)	1	0.07	1.96	1.46	enough cells to score
13	Gphb5 (glycoprotein hormone beta 5)	1		1.44	0	fewer than 50 cells per well; well left out of scoring
14	Ap4b1 (adaptor-related protein complex AP-4, beta 1)	1	-0.98	1.41	1.42	enough cells to score
15	Ap4b1 (adaptor-related protein complex AP-4, beta 1)	2		1.43	1.35	fewer than 50 cells per well; well left out of scoring
16	Pdia4 (protein disulfide isomerase associated 4)	1	2.44	1.96	2	enough cells to score
17	Izumo1r (IZUMO1 receptor, JUNO)	1	0.15	1.63	1.47	enough cells to score
18	Pold1 (polymerase (DNA directed), delta 1, catalytic subunit)	1	-0.85	1.7	1.3	enough cells to score
19	Zfp781a (zinc finger protein 781A)	1	-0.06	1.57	1.77	enough cells to score
20	Bcl2l12 (BCL2 like 12)	1		1.15	1.08	fewer than 50 cells per well; well left out of scoring
21	Or1n2 (olfactory receptor family 1 subfamily N member 2)	1	0.26	1.64	1.53	enough cells to score
22	Mtss2 (MTSS I-BAR domain containing 2)	1		1.04	1.09	fewer than 50 cells per well; well left out of scoring
23	Fgf7 (fibroblast growth factor 7)	1	0.18	1.44	1.42	enough cells to score
24	Krr1 (KRR1 small subunit processome component)	1	-1.64 (active)	1.18	1.2	enough cells to score
25	Dbp (D site albumin promoter binding protein)	1	-0.01	1.49	1.35	enough cells to score
26	Pitpnm2 (phosphatidylinositol transfer protein, membrane-associated 2)	1		1.57	2.66	fewer than 50 cells per well; well left out of scoring
27	Osbpl8 (oxysterol binding protein-like 8)	1	-0.26	1.37	1.24	enough cells to score
28	Apba3 (amyloid beta precursor protein binding family A member 3)	1	1.41	1.68	1.84	enough cells to score
29	Med8 (mediator complex subunit 8)	1		1.44	1.54	fewer than 50 cells per well; well left out of scoring
30	Hoxd12 (homeobox D12)	1	-1.29	1.31	1.17	enough cells to score
31	Tmem209 (transmembrane protein 209)	1	0.42	1.5	1.47	enough cells to score
32	Or5m13b (olfactory receptor family 5 subfamily M member 13B)	1	-0.26	1.49	1.65	enough cells to score
33	Nr2c1 (nuclear receptor subfamily 2, group C, member 1)	1	-1.54	1.22	1.24	enough cells to score
34	Stradb (STE20-related kinase adaptor beta)	1	-1.71 (active)	1.34	1.23	enough cells to score
35	Zc2hc1c (zinc finger, C2HC-type containing 1C)	1	-0.27	1.42	1.37	enough cells to score
36	Per1 (period circadian clock 1)	1	0.26	1.43	1.5	enough cells to score
37	Hyal5 (hyaluronoglucosaminidase 5)	1	-0.15	1.58	1.6	enough cells to score
38	Relch	1		1.19	1.19	fewer than 50 cells per well; well left out of scoring
39	Nradd (neurotrophin receptor associated death domain)	1	2.2	2.32	1.62	enough cells to score
40	Tmem116 (transmembrane protein 116)	1	-3.26 (active)	1.08	0.977	enough cells to score
41	Pgd (phosphogluconate dehydrogenase)	1	-0.64	1.25	1.17	enough cells to score
42	Evi2b (ecotropic viral integration site 2b)	1	-0.11	1.43	1.37	enough cells to score
43	Acp7 (acid phosphatase 7, tartrate resistant)	1	1.22	1.67	1.62	enough cells to score
44	Magea9-ps (MAGE family member A9, pseudogene)	1	-0.7	1.58	1.46	enough cells to score
45	Lacc1 (laccase domain containing 1)	1	-1.38	1.31	1.28	enough cells to score
46	Ap5s1 (adaptor-related protein 5 complex, sigma 1 subunit)	1		1.8	1.6	fewer than 50 cells per well; well left out of scoring
47	Dctd (dCMP deaminase)	1	0.12	1.56	1.36	enough cells to score
48	Or9s27 (olfactory receptor family 9 subfamily S member 27)	1	1.1	1.79	1.55	enough cells to score
49	Cdkl4 (cyclin dependent kinase like 4)	1	1.05	1.91	1.46	enough cells to score
50	Fam98b (family with sequence similarity 98, member B)	1	-1.13	1.32	1.24	enough cells to score
51	Zfp30 (zinc finger protein 30)	1		1.44	1.2	fewer than 50 cells per well; well left out of scoring
52	Or4a70 (olfactory receptor family 4 subfamily A member 70)	1	0.77	1.77	1.49	enough cells to score
53	C8a (complement component 8, alpha polypeptide)	1	-0.13	1.56	1.62	enough cells to score
54	Mbtps2 (membrane-bound transcription factor peptidase, site 2)	1	0.02	1.48	1.32	enough cells to score
55	C6 (complement component 6)	1	0.5	1.69	1.69	enough cells to score
56	Mindy3 (MINDY lysine 48 deubiquitinase 3)	1	-1.57 (active)	1.16	1.19	enough cells to score
57	Or8d1b (olfactory receptor family 8 subfamily D member 1B)	1	0.63	1.54	1.31	enough cells to score
58	Tnfsf8 (tumor necrosis factor (ligand) superfamily, member 8)	1	-0.24	1.5	1.47	enough cells to score
59	Usp28 (ubiquitin specific peptidase 28)	1		1.49	1.16	fewer than 50 cells per well; well left out of scoring
